PubChem BioAssay AID1259254 | NCATS | 2017
Screen: 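Gene knock-downs that lead to re-replication, shown by excess G2 DNA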 (primary screen). Cells: human HCT116 colorectal cancer cells. Reagents: single siRNA against human genes. Time to read-out: 3 days. Detection: 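Nuclei stained with Hoechst and imaged; cell-cycle phase assigned by DNA content; G2 share scaled per plate, non-targeting siRNA 0%, GMNN siRNA 100%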. Scale: G2 robust z-score and G2 cells, % of GMNN control: higher = more G2 cells, more excess DNA replication. Rule for the call: 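An siRNA counts as active if its G2 robust z-score lies at least 5 MADs above the screen median; here such calls match roughly 38% of GMNN control or more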.
This is an unselected part of about 59,000 deposited reagents. About 1,550 of them (2.6%) count as active. 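G2 share is only a proxy for re-replication; each gene was hit by three separate siRNAs, and active genes were retested.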 The numbers tell different reagents against one gene apart. Further read-outs or replicates are left out here. Reagent sequences are not shown. Not given: the amount of reagent.

MOB2 #1 — G2 robust z-score: -1.63; G2 cells, % of GMNN control: -8.51; call: inactive
MOB2 #2 — G2 robust z-score: 2.34; G2 cells, % of GMNN control: 19.5; call: inactive
MOB2 #3 — G2 robust z-score: 0.477; G2 cells, % of GMNN control: 6.33; call: inactive
KLK9 #1 — G2 robust z-score: -1.08; G2 cells, % of GMNN control: -4.6; call: inactive
KLK9 #2 — G2 robust z-score: -0.749; G2 cells, % of GMNN control: -2.3; call: inactive
KLK9 #3 — G2 robust z-score: -0.972; G2 cells, % of GMNN control: -3.87; call: inactive
OR52L1 #1 — G2 robust z-score: 0.117; G2 cells, % of GMNN control: 3.79; call: inactive
OR52L1 #2 — G2 robust z-score: 1.74; G2 cells, % of GMNN control: 15.2; call: inactive
OR52L1 #3 — G2 robust z-score: 1.9; G2 cells, % of GMNN control: 16.3; call: inactive
TMEM178A #1 — G2 robust z-score: 9.57; G2 cells, % of GMNN control: 70.3; call: active
TMEM178A #2 — G2 robust z-score: 1.56; G2 cells, % of GMNN control: 13.9; call: inactive
TMEM178A #3 — G2 robust z-score: -0.444; G2 cells, % of GMNN control: -0.156; call: inactive
CLCN3 #1 — G2 robust z-score: 3.09; G2 cells, % of GMNN control: 24.7; call: inactive
CLCN3 #2 — G2 robust z-score: -1.16; G2 cells, % of GMNN control: -5.18; call: inactive
CLCN3 #3 — G2 robust z-score: -0.56; G2 cells, % of GMNN control: -0.974; call: inactive
CUL7 #1 — G2 robust z-score: -0.141; G2 cells, % of GMNN control: 1.98; call: inactive
CUL7 #2 — G2 robust z-score: 1.05; G2 cells, % of GMNN control: 10.3; call: inactive
CUL7 #3 — G2 robust z-score: 0.572; G2 cells, % of GMNN control: 6.99; call: inactive

Single entries from the list:
KLK9 #2, G2 robust z-score = -0.749
CLCN3 #2, G2 cells, % of GMNN control → -5.18
Under “call”, MOB2 #3 is entered as inactive

Continued.
FSCN1 #1 — G2 robust z-score: -0.631; G2 cells, % of GMNN control: -1.47; call: inactive
FSCN1 #2 — G2 robust z-score: 0.571; G2 cells, % of GMNN control: 6.98; call: inactive
FSCN1 #3 — G2 robust z-score: 0.92; G2 cells, % of GMNN control: 9.44; call: inactive
FABP7 #1 — G2 robust z-score: 1.29; G2 cells, % of GMNN control: 12; call: inactive
FABP7 #2 — G2 robust z-score: -0.758; G2 cells, % of GMNN control: -2.37; call: inactive
FABP7 #3 — G2 robust z-score: -0.289; G2 cells, % of GMNN control: 0.936; call: inactive
GPR150 #1 — G2 robust z-score: 2.72; G2 cells, % of GMNN control: 22.1; call: inactive
GPR150 #2 — G2 robust z-score: 0.457; G2 cells, % of GMNN control: 6.18; call: inactive
GPR150 #3 — G2 robust z-score: -0.189; G2 cells, % of GMNN control: 1.64; call: inactive
SERPINB7 #1 — G2 robust z-score: 0.946; G2 cells, % of GMNN control: 9.62; call: inactive
SERPINB7 #2 — G2 robust z-score: -0.411; G2 cells, % of GMNN control: 0.0774; call: inactive
SERPINB7 #3 — G2 robust z-score: 2.99; G2 cells, % of GMNN control: 24; call: inactive
